Results deposited as PubChem BioAssay AID1224828 (NIAID, 2016)

Purpose: 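Regulators linking TLR4 signalling to p65 nuclear translocation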 (primary screen)
System: mouse RAW264.7 G9 macrophage reporter cells (GFP-p65, Tnf promoter-mCherry)
Knock-down reagent: siRNA pool against mouse genes, 100 nM
Timing: 2 days siRNA transfection, then 40 min LPS before fixation
Treatment: LPS (Salmonella minnesota R595) at 10 ng/ml
Read-out: 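Imaged p65 nuclear translocation ratio, normalised to the plate median, converted to robust z-scores and averaged across two replicates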
Scale: p65 translocation robust z-score: higher = more nuclear NF-kappaB p65 after LPS than the plate median; nuclear/cytoplasmic p65 ratio: higher = more nuclear NF-kappaB p65
Hit rule: 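Called active when z exceeds 3.3 or falls under -1.56 (median of Tlr4 controls), giving activity score of at least 50; no calls for control wells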
Meaning of the calls: active = hit (p65 shift raised or lowered); inactive = no clear change
This is a random part of about 17,000 reagents tested. Over the whole deposit, 762 (4.5%) got an active call. 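Active calls include both raised and lowered p65 entry, mostly lowered; wells with fewer than 50 cells lack a z-score.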 The raw values are shown without normalisation. The numbers tell different reagents against one gene apart. Reagent sequences are not shown.

p65 translocation robust z-score | nuclear/cytoplasmic p65 ratio, rep 1 | nuclear/cytoplasmic p65 ratio, rep 2 | low cell count flag | activity call | gene symbol | reagent no.
-0.77 | 1.37 | 1.28 | enough cells to score | inactive | Kcns2 (K+ voltage-gated channel, subfamily S, 2) | 1
1.27 | 1.59 | 1.66 | enough cells to score | inactive | AA986860 (expressed sequence AA986860) | 1
-0.28 | 1.42 | 1.88 | enough cells to score | inactive | Chn1 (chimerin 1) | 1
-0.49 | 1.76 | 1.32 | enough cells to score | inactive | Peak1 (pseudopodium-enriched atypical kinase 1) | 1
-0.41 | 1.57 | 1.55 | enough cells to score | inactive | Adamts15 (ADAM metallopeptidase with thrombospondin type 1 motif 15) | 1
-0.29 | 1.41 | 1.2 | enough cells to score | inactive | Strm (striamin) | 1
-1.29 | 1.33 | 1.49 | enough cells to score | inactive | Oprm1 (opioid receptor, mu 1) | 1
– | 1.35 | 1.16 | fewer than 50 cells per well; well left out of scoring | inactive | Dmtf1l (cyclin D binding myb like transcription factor 1 like) | 1
2.51 | 1.97 | 1.72 | enough cells to score | inactive | Krt23 (keratin 23) | 1
2.87 | 1.87 | 1.49 | enough cells to score | inactive | Mucl2 (mucin-like 2) | 1
1.28 | 1.62 | 1.37 | enough cells to score | inactive | Rcc1l (reculator of chromosome condensation 1 like) | 1
1.29 | 1.69 | 2 | enough cells to score | inactive | Abcb6 (ATP-binding cassette, sub-family B member 6) | 1
0.53 | 1.51 | 1.24 | enough cells to score | inactive | Pcdhb12 (protocadherin beta 12) | 1
-0.85 | 1.47 | 1.5 | enough cells to score | inactive | Spink5 (serine peptidase inhibitor, Kazal type 5) | 1
0.66 | 1.56 | 1.44 | enough cells to score | inactive | Cdcp1 (CUB domain containing protein 1) | 1
-0.08 | 1.43 | 1.22 | enough cells to score | inactive | Zfp97 (zinc finger protein 97) | 1
0.09 | 1.6 | 1.85 | enough cells to score | inactive | Prr15l (proline rich 15-like) | 1
-1.84 | 1.36 | 1.16 | enough cells to score | active | Or5b106 (olfactory receptor family 5 subfamily B member 106) | 1
1.43 | 1.89 | 1.8 | enough cells to score | inactive | Lsm2 | 1
– | 0 | 1.08 | fewer than 50 cells per well; well left out of scoring | inactive | Smoc2 (SPARC related modular calcium binding 2) | 1
0.32 | 1.44 | 1.43 | enough cells to score | inactive | Hmbs (hydroxymethylbilane synthase) | 1
2.13 | 1.79 | 2.07 | enough cells to score | inactive | Dync1li2 (dynein, cytoplasmic 1 light intermediate chain 2) | 1
-0.79 | 1.29 | 1.31 | enough cells to score | inactive | Wfdc15a (WAP four-disulfide core domain 15A) | 1
-1.25 | 1.42 | 1.44 | enough cells to score | inactive | Add2 (adducin 2) | 1
-0.04 | 1.78 | 1.58 | enough cells to score | inactive | Mrpl11 (mitochondrial ribosomal protein L11) | 1
-0.83 | 1.48 | 1.5 | enough cells to score | inactive | Axin2 (axin 2) | 1
-1.69 | 1.32 | 1.25 | enough cells to score | active | Fgd5 (FYVE, RhoGEF and PH domain containing 5) | 1
1.97 | 2.03 | 1.81 | enough cells to score | inactive | Oas1c (2'-5' oligoadenylate synthetase 1C) | 1
2.97 | 1.84 | 1.61 | enough cells to score | inactive | Or7g22 (olfactory receptor family 7 subfamily G member 22) | 1
-0.21 | 1.42 | 1.89 | enough cells to score | inactive | Cs (citrate synthase) | 1
-0.09 | 1.36 | 1.59 | enough cells to score | inactive | Clmp (CXADR-like membrane protein) | 1
0.55 | 1.6 | 1.57 | enough cells to score | inactive | Patz1 (POZ (BTB) and AT hook containing zinc finger 1) | 1
0.66 | 1.46 | 1.35 | enough cells to score | inactive | Or10p22 (olfactory receptor family 10 subfamily P member 22) | 1
-1.21 | 1.52 | 1.37 | enough cells to score | inactive | Matn2 (matrilin 2) | 1
0.07 | 1.58 | 1.63 | enough cells to score | inactive | Wnt10b (WNT family member 10B) | 1
– | 1.42 | 1.3 | fewer than 50 cells per well; well left out of scoring | inactive | Plekha4 (pleckstrin homology domain containing A4) | 1
1.52 | 2 | 1.84 | enough cells to score | inactive | Mmd2 (monocyte to macrophage differentiation-associated 2) | 1
– | 1.14 | 1.47 | fewer than 50 cells per well; well left out of scoring | inactive | Btbd6 (BTB domain containing 6) | 1
– | 1.46 | 1.28 | fewer than 50 cells per well; well left out of scoring | inactive | Slc35g1 | 1
-0.33 | 1.55 | 1.58 | enough cells to score | inactive | Enoph1 (enolase-phosphatase 1) | 1
-0.74 | 1.47 | 1.38 | enough cells to score | inactive | Eppk1 (epiplakin 1) | 1
-2.59 | 1.06 | 1.3 | enough cells to score | active | Rsrp1 (arginine/serine rich protein 1) | 1
-0.44 | 1.41 | 1.27 | enough cells to score | inactive | Ndel1 (nudE neurodevelopment protein 1 like 1) | 1
0.38 | 1.66 | 1.31 | enough cells to score | inactive | Drd2 (dopamine receptor D2) | 1
-1.77 | 1.22 | 1.14 | enough cells to score | active | Dnaja3 (DnaJ heat shock protein family (Hsp40) member A3) | 1
– | 0.951 | 1.02 | fewer than 50 cells per well; well left out of scoring | inactive | Tcp10b (t-complex protein 10b) | 1
-0.93 | 1.54 | 1.44 | enough cells to score | inactive | Mgst3 (microsomal glutathione S-transferase 3) | 1
0.37 | 1.5 | 1.71 | enough cells to score | inactive | Serpina3n (serine (or cysteine) peptidase inhibitor, clade A, member 3N) | 1
0.06 | 1.29 | 1.31 | enough cells to score | inactive | Alg13 (asparagine-linked glycosylation 13) | 1
-1.43 | 1.32 | 1.2 | enough cells to score | inactive | Chrne (cholinergic receptor, nicotinic, epsilon polypeptide) | 1
1.6 | 1.76 | 1.6 | enough cells to score | inactive | Rab26 (RAB26, member RAS oncogene family) | 1
-0.16 | 1.63 | 1.56 | enough cells to score | inactive | Foxj3 (forkhead box J3) | 1
1.52 | 1.66 | 1.78 | enough cells to score | inactive | Usp1 (ubiquitin specific peptidase 1) | 1
-1.08 | 1.39 | 1.12 | enough cells to score | inactive | Zmynd19 (zinc finger, MYND domain containing 19) | 1
– | 1.18 | 1.12 | fewer than 50 cells per well; well left out of scoring | inactive | Siral2 (SIR2 antiphage like 2) | 1
-1.34 | 1.32 | 1.4 | enough cells to score | inactive | Or3a1 (olfactory receptor family 3 subfamily A member 1) | 1
0.6 | 1.6 | 1.69 | enough cells to score | inactive | Zw10 (zw10 kinetochore protein) | 1
-0.88 | 1.24 | 1.17 | enough cells to score | inactive | Rnf34 (ring finger protein 34) | 1
0.35 | 1.55 | 1.31 | enough cells to score | inactive | Or2ag16 (olfactory receptor family 2 subfamily AG member 16) | 1
0.37 | 1.44 | 1.29 | enough cells to score | inactive | Sucla2 (succinate-Coenzyme A ligase, ADP-forming, beta subunit) | 1
1.15 | 1.9 | 1.83 | enough cells to score | inactive | Mphosph10 | 1
-0.75 | 1.45 | 1.36 | enough cells to score | inactive | Ube2d3 (ubiquitin-conjugating enzyme E2D 3) | 1
– | 1.3 | 1.32 | fewer than 50 cells per well; well left out of scoring | inactive | Etaa1 (Ewing tumor-associated antigen 1) | 1
-1.4 | 1.34 | 1.6 | enough cells to score | inactive | Dbpht1 (retired record) | 1
-0.95 | 1.64 | 1.44 | enough cells to score | inactive | Ndufa7 (NADH:ubiquinone oxidoreductase subunit A7) | 1
-1.12 | 1.56 | 1.35 | enough cells to score | inactive | Or4a66 (olfactory receptor family 4 subfamily A member 66) | 1
1.52 | 1.55 | 1.74 | enough cells to score | inactive | Fam184b (family with sequence similarity 184, member B) | 1
-0.23 | 1.49 | 1.3 | enough cells to score | inactive | Chrna7 (cholinergic receptor, nicotinic, alpha polypeptide 7) | 1
-0.03 | 1.6 | 1.75 | enough cells to score | inactive | Cyp4a12b (cytochrome P450, family 4, subfamily a, polypeptide 12B) | 1
– | 1.38 | 1.39 | fewer than 50 cells per well; well left out of scoring | inactive | Tmem43 (transmembrane protein 43) | 1
-0.8 | 1.33 | 1.3 | enough cells to score | inactive | Ccl19 (C-C motif chemokine ligand 19) | 1
0.51 | 1.74 | 1.44 | enough cells to score | inactive | Or2ak6 (olfactory receptor family 2 subfamily AK member 6) | 1
1.4 | 1.6 | 1.39 | enough cells to score | inactive | Stx1b (syntaxin 1B) | 1
-0.27 | 1.38 | 1.23 | enough cells to score | inactive | Stx1b (syntaxin 1B) | 2
-0.12 | 1.58 | 1.62 | enough cells to score | inactive | Adam30 (a disintegrin and metallopeptidase domain 30) | 1

Quoted from the listing (11 entries):
p65 translocation robust z-score | nuclear/cytoplasmic p65 ratio, rep 1 | nuclear/cytoplasmic p65 ratio, rep 2 | low cell count flag | activity call | gene symbol | reagent no.
1.27 | 1.59 | 1.66 | enough cells to score | inactive | AA986860 (expressed sequence AA986860) | 1
-0.28 | 1.42 | 1.88 | enough cells to score | inactive | Chn1 (chimerin 1) | 1
-0.49 | 1.76 | 1.32 | enough cells to score | inactive | Peak1 (pseudopodium-enriched atypical kinase 1) | 1
-0.41 | 1.57 | 1.55 | enough cells to score | inactive | Adamts15 (ADAM metallopeptidase with thrombospondin type 1 motif 15) | 1
-0.29 | 1.41 | 1.2 | enough cells to score | inactive | Strm (striamin) | 1
-1.29 | 1.33 | 1.49 | enough cells to score | inactive | Oprm1 (opioid receptor, mu 1) | 1
– | 1.35 | 1.16 | fewer than 50 cells per well; well left out of scoring | inactive | Dmtf1l (cyclin D binding myb like transcription factor 1 like) | 1
2.51 | 1.97 | 1.72 | enough cells to score | inactive | Krt23 (keratin 23) | 1
2.87 | 1.87 | 1.49 | enough cells to score | inactive | Mucl2 (mucin-like 2) | 1
1.28 | 1.62 | 1.37 | enough cells to score | inactive | Rcc1l (reculator of chromosome condensation 1 like) | 1
1.29 | 1.69 | 2 | enough cells to score | inactive | Abcb6 (ATP-binding cassette, sub-family B member 6) | 1
